# Data taken from the supplement of paper PMC3334620.
# In all, about 33,000 sequences were measured (“E-score (-0.5 to 0.5)”: median about -0.0014, highest 2% from about 0.25 on). The list shows a part of the results.
# Molecular target: T1, Cad1 (UniProt P24813)
# T1 sequence: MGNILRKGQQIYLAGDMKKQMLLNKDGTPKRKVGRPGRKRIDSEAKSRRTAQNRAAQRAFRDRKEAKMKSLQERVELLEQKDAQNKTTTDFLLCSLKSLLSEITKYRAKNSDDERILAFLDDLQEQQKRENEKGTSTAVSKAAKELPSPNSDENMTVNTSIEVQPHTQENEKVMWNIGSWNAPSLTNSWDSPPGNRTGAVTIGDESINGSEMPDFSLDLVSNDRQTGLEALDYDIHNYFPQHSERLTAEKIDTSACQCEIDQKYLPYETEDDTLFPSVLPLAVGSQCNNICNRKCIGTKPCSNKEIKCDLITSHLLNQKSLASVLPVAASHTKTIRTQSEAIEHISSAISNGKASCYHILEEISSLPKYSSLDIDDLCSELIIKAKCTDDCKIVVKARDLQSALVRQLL
# Assay: PBM E-score (8-mer binding enrichment) (E-score (-0.5 to 0.5)); higher = stronger / more preferred TF binding
# Settings: protein concentration: 100 nM; construct: GST-full length
# How it was run: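 Bound GST-tagged yeast transcription factors, applied at about 100-200 nM to double-stranded universal all-10-mer Agilent arrays, were detected with fluorescent anti-GST. Scans were normalised with masliner. A modified Wilcoxon-Mann-Whitney statistic, the E-score, was assigned to each ungapped eight-base word pooled with its reverse complement by the Universal PBM Analysis Suite.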
row,Sequence,PBM E-score
1,ATCACGCG,0.187
2,AAGGGCCC,-0.174
3,AAAAGGTG,-0.108
4,ATACTAGG,-0.025
5,CCCAATCG,0.0261
6,ACCAGCGT,-0.0786
7,GGGCAACA,-0.0207
8,CACAAGCA,-0.138
9,GATGATAA,0.195
10,AACTGAGA,0.00938
11,ATTCAAGG,-0.13
12,AGGCCCGG,-0.312
13,CCCCCGAG,-0.393
14,AGAAGTTA,-0.0303
15,AGCGTACA,-0.0344
16,ATCATGGG,-0.0515
17,ATTCCCTG,0.117
18,CGCCTGAC,0.149
19,GTCGAGCA,-0.158
20,GATCCGCC,0.121
21,ACTGTGGA,-0.121
22,AGGGAGGA,-0.242
23,AAGCGCAA,0.195
24,AGACCAGA,0.0503
25,GTAGCTAC,0.139

row,Sequence,PBM E-score
1,AATGGTCC,0.0918
2,CCGCCTAG,-0.136
3,AGCAGTAG,-0.155
4,CGGAACTA,0.0846
5,ATTGCTAA,0.256
6,CACATTAG,-0.103
7,GAATATCC,0.0877
8,AGACGACT,-0.0688
9,GGATATCC,0.202
10,CTTGGATC,-0.0474
11,ACGCAACT,0.103
12,GAAGATAA,0.0962
13,CAAGTCAG,-0.0206
14,AACTTAAG,0.0278
15,AGGGAAAG,-0.25
16,CGGTGGAA,-0.0736
17,GACCGATA,0.0943
18,ATGGAGTC,-0.0103
19,GAACTGCC,0.00888
20,CCCGATCG,0.0489
21,ATCTGCGA,0.0716
22,GTTCATCA,0.106
23,GCAGATAC,0.095
24,CTGATATA,0.0682
25,AGCACTAG,-0.00122

row,Sequence,PBM E-score
1,AGCTGACT,0.138
2,CTGTAGTA,0.191
3,CTGCGAAA,0.0969
4,CGATCACC,-0.0201
5,ACGACTCT,0.0531
6,CATCTGGA,-0.165
7,AACGTGCA,-0.0818
8,GATAGCCC,-0.213
9,CCGGCGTA,-0.0131
10,GATTTTTA,-0.0272
11,CCTTCGAG,-0.189
12,CGGTAGCC,0.0668
13,GGGTATAA,-0.089
14,CGATACCA,0.0121
15,ACATTCTA,-0.091
16,AACCGTGC,0.154
17,CCAATAGA,-0.191
18,CACTCTGA,-0.095
19,CAGTTCGA,-0.0357
20,ATTGTTGG,0.143
21,AGTGGGAA,0.0875
22,CTGTATCA,-0.0921
23,GAAGAATC,-0.0942
24,GAGGCTGC,-0.0933
25,CGAGCCCC,-0.346

row,Sequence,PBM E-score
1,GACTACCA,-0.266
2,CCGGGTAA,0.126
3,ACCGATCG,0.0355
4,AGTCATAT,-0.0253
5,CGACAGGA,0.0186
6,AAGCTTAG,0.219
7,TCTGAGCA,0.0835
8,ACCCTATC,-0.144
9,GAGACGTA,-0.0175
10,ATTTGGAG,-0.204
11,ACATTAAA,0.11
12,CCTGTATA,-0.00199
13,CGTACTCC,-0.124
14,CCTATTTC,0.0937
15,AGGGATTG,0.0279
16,GCGCGGTA,0.221
17,ACACTACC,-0.0866
18,TACCTCCA,-0.115
19,AGTGCTAA,0.13
20,GTCAGCCA,0.1
21,AACCTTAA,0.0881
22,GGGGCTAA,-0.0954
23,GGGTGCTA,-0.152
24,ATATAGGC,0.0282
25,ACCGAAAA,0.242

row,Sequence,PBM E-score
1,CAACAAGC,0.033
2,ACAGCGAG,0.043
3,CCACGTGA,0.0693
4,TGATTTAA,0.168
5,AAAGTCTC,-0.186
6,GCAATTGC,0.33
7,AACGTGGG,-0.00895
8,GGATTGTA,0.0691
9,ACGGCGCC,0.139
10,CCTCTCGA,-0.204
11,AGCATCCG,-0.0477
12,ATGCTCTG,-0.244
13,CAATGTTC,-0.0524
14,GGGACTTA,-0.0461
15,CTACGAAG,-0.245
16,CAACCCTG,-0.0802
17,ACCTACGT,-0.0266
18,ATCGCACA,0.0418
19,GCGCATGA,-0.0108
20,CATGCACA,0.151
21,CATATTGA,-0.12
22,AGCCCGGA,-0.0503
23,CATCTAAC,-0.0706
24,CGGTGCTA,0.0153
25,CAAACGCA,-0.119

row,Sequence,PBM E-score
1,CATTGGAG,0.0782
2,AATGACTC,-0.0782
3,GTAACTAA,0.17
4,CGGGTGCA,-0.148
5,CAATGGCC,-0.208
6,CAGTGGGC,-0.177
7,CCCCTGCA,-0.246
8,GACATCAC,0.00538
9,CTCTGTCC,0.0196
10,CATCACGA,-0.0197
11,CTAGGCAA,-0.101
12,ATACATTC,-0.0148
13,GACTTGCC,-0.113
14,AATGACAG,0.0671
15,ACAAGAGA,-0.0185
16,ACTTCCTA,-0.0279
17,CGTTAGAA,0.161
18,GCAGCACC,-0.0839
19,ACACTAAA,0.144
20,AGCGCGTC,0.0884
21,AATGTCGT,0.0252
22,GGCCGCAA,0.0101
23,CGAACGTA,-0.0401
24,CCATGTCC,-0.127
25,CTGGGTCC,-0.305

row,Sequence,PBM E-score
1,AGAGACAC,-0.0303
2,ACGTAAAT,-0.00128
3,GCGAACCC,0.0563
4,AGAAAACT,0.0817
5,ACGGACCC,-0.0395
6,CTTCCATC,-0.0678
7,CGACCAGA,0.0524
8,GATCTTGC,0.056
9,ATCAGTTG,0.0213
10,AAGCGCGA,0.101
11,GACATAGC,0.128
12,ATCGCACG,-0.087
13,TCGGCAAA,-0.0575
14,GAGCGATC,0.00623
15,AATAGACT,-0.00447
16,ACTCTCCC,-0.178
17,ACCAAGGA,-0.0611
18,ATCGGGGC,-0.23
19,CAGTACTA,0.105
20,CCGTGTAC,0.12
21,ATAACCCC,-0.191
22,ACATGAGT,-0.0168
23,ACTTGAGC,-0.213
24,GATTTTAC,-0.0346
25,GTCGTGGA,-0.0177

row,Sequence,PBM E-score
1,AATTCCTC,-0.0624
2,CCTATATC,0.154
3,CTCATAAG,0.0121
4,TCTGCGCA,0.068
5,AGAGGTAC,-0.24
6,AAGTAGAA,-0.105
7,ACAAGACC,-0.192
8,ACCAGGAG,-0.182
9,CGAAATAG,0.0158
10,CTCGAAGC,0.00892
11,ATATAGTA,0.162
12,GCCGCGAA,-0.0612
13,CTAATAGA,0.154
14,GACGAAGC,-0.153
15,GGAACGAC,-0.0184
16,CATCCCCC,-0.47
17,CGTCCGAC,0.0418
18,ATCGCTTA,0.191
19,GACGGATA,0.0464
20,AGATTCGG,0.163
21,AGCACATC,0.0911
22,CGGGGGAG,-0.432
23,TGCACTAA,0.32
24,ACTATTGA,0.187
25,GAGTATGA,0.0494

# Five entries picked at random from the list so far:
row,Sequence,PBM E-score
13,CTAATAGA,0.154
2,ACAGCGAG,0.043
14,AATGACAG,0.0671
15,AGCGTACA,-0.0344
11,GACATAGC,0.128

# Part of the list above in a different format:
row	Sequence	PBM E-score
25	CGAGCCCC	-0.346
1	GACTACCA	-0.266

# Remaining list, next part

row,Sequence,PBM E-score
1,AGTGGATA,0.0112
2,TCCGATAA,-0.0102
3,AGACGGGG,-0.136
4,GGCGAAGA,-0.137
5,CTGAATAA,0.231
6,TAATTATA,0.306
7,CACGGTAG,-0.0181
8,ACCACTTG,-0.116
9,CAAGGATA,0.013
10,CCAGCTTC,-0.0391
11,CGCACTAC,0.0013
12,CCCCTACG,-0.215
13,CCCAAAAC,0.115
14,AGCCCCTC,-0.0424
15,CACTAGTG,0.117
16,CATTATGA,-0.179
17,GTCGTTAA,0.0765
18,GTAGGCAA,-0.113
19,AGAGGCTA,-0.216
